Measurements as given in the supplement of paper PMC11732987, “Enantioselective OTUD7B fragment discovery through chemoproteomics screening and high-throughput optimisation” (Communications Chemistry, 2025).
The list shows a part of the results. The data scatter; read single values as rough.

The chains behind the UniProt entries cited, without tags or fusion partners. Where a name states a change or a piece, a line headed by the entry shows the natural chain unless it says otherwise. Residues count along the entry.
UniProt Q96P48: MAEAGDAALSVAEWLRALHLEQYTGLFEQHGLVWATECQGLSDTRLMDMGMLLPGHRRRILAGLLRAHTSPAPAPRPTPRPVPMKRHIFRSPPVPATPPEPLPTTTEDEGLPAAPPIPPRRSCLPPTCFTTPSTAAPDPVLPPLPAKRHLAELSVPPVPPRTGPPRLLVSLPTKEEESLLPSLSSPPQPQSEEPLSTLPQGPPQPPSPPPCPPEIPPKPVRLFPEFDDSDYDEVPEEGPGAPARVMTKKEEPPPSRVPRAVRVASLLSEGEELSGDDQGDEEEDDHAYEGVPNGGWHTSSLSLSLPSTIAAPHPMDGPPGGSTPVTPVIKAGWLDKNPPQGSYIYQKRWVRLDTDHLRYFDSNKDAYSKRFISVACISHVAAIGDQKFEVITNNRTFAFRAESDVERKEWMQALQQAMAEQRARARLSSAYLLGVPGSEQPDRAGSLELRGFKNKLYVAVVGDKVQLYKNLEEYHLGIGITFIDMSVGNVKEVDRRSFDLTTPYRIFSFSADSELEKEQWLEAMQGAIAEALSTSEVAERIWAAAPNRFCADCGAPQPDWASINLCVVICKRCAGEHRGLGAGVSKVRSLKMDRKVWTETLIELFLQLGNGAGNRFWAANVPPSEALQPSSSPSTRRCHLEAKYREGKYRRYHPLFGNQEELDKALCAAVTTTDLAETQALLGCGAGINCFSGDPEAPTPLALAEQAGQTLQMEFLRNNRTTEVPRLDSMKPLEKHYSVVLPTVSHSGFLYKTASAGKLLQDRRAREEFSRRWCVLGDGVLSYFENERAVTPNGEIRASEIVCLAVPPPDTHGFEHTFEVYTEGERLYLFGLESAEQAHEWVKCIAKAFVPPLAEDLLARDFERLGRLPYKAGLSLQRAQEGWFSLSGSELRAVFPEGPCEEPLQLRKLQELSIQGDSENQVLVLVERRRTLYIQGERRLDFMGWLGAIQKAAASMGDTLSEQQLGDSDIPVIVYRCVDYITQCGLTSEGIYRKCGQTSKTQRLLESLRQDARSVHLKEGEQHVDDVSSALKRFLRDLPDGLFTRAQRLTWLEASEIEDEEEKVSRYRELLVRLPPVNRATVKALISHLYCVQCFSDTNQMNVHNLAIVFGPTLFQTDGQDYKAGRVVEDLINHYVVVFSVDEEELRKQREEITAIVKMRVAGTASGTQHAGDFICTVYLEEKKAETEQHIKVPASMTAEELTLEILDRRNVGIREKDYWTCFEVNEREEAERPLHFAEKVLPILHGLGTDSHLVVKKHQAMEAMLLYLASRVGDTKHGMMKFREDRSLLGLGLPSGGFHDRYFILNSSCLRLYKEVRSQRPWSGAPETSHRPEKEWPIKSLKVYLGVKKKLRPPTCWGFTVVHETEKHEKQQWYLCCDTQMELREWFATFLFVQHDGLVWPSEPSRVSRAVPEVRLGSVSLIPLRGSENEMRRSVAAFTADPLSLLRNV
UniProt Q68DC2: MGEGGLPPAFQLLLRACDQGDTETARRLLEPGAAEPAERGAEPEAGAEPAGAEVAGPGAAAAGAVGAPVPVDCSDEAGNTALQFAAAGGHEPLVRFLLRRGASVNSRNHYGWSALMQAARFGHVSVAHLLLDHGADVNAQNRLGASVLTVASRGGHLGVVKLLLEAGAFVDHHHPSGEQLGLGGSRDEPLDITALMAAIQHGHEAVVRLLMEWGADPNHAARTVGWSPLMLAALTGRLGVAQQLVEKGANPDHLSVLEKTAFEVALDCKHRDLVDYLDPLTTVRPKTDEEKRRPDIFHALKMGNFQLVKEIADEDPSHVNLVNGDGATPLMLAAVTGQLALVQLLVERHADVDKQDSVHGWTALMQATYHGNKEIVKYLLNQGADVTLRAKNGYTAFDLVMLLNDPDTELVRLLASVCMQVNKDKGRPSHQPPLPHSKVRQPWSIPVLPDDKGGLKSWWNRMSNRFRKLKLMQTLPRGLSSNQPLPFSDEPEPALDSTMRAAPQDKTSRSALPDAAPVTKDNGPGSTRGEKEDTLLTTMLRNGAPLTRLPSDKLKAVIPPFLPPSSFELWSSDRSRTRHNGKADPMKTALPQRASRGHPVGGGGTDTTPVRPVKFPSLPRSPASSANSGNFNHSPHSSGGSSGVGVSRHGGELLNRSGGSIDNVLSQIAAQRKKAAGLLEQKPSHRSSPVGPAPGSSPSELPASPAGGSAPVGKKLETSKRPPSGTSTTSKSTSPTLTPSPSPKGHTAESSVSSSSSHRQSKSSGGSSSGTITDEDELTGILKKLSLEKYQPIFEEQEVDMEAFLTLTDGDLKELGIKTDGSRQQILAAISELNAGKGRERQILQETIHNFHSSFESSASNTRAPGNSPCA
UniProt P20073: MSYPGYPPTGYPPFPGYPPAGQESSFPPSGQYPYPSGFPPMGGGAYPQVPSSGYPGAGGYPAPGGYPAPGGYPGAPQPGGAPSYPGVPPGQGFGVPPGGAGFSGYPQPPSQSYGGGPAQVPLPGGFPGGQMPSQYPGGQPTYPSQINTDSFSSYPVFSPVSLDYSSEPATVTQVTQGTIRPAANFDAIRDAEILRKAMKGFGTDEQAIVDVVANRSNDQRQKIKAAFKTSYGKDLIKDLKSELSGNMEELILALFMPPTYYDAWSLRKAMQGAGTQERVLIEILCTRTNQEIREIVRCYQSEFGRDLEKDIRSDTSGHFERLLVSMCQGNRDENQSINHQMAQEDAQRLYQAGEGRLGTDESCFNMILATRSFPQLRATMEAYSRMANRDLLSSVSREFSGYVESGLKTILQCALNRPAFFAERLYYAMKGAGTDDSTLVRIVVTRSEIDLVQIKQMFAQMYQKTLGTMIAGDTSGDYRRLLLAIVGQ
UniProt O95782: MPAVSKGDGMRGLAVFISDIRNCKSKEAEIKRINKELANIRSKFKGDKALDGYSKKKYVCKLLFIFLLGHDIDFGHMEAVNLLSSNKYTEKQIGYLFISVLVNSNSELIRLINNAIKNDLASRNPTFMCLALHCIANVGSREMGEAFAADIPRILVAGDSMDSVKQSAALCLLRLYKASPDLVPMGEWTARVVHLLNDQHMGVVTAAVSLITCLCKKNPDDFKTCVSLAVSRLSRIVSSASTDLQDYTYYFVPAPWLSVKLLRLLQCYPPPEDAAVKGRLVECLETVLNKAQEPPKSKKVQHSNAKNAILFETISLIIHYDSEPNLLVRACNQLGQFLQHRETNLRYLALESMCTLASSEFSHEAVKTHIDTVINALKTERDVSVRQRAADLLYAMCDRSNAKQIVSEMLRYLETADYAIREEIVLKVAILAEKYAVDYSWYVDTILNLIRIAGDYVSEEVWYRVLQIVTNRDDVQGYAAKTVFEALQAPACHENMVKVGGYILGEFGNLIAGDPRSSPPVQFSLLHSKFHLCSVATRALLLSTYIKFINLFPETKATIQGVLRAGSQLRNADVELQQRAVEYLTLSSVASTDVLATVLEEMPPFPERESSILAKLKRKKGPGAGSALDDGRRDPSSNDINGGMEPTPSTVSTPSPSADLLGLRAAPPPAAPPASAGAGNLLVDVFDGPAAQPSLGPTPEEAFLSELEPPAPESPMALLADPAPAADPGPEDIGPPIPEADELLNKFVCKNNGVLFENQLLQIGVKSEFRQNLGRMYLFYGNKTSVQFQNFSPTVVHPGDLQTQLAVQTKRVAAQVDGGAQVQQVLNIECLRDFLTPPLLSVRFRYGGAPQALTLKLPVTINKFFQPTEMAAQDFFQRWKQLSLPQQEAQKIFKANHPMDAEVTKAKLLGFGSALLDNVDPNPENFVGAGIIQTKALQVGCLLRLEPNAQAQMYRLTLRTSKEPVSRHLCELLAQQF
UniProt Q9NZN5: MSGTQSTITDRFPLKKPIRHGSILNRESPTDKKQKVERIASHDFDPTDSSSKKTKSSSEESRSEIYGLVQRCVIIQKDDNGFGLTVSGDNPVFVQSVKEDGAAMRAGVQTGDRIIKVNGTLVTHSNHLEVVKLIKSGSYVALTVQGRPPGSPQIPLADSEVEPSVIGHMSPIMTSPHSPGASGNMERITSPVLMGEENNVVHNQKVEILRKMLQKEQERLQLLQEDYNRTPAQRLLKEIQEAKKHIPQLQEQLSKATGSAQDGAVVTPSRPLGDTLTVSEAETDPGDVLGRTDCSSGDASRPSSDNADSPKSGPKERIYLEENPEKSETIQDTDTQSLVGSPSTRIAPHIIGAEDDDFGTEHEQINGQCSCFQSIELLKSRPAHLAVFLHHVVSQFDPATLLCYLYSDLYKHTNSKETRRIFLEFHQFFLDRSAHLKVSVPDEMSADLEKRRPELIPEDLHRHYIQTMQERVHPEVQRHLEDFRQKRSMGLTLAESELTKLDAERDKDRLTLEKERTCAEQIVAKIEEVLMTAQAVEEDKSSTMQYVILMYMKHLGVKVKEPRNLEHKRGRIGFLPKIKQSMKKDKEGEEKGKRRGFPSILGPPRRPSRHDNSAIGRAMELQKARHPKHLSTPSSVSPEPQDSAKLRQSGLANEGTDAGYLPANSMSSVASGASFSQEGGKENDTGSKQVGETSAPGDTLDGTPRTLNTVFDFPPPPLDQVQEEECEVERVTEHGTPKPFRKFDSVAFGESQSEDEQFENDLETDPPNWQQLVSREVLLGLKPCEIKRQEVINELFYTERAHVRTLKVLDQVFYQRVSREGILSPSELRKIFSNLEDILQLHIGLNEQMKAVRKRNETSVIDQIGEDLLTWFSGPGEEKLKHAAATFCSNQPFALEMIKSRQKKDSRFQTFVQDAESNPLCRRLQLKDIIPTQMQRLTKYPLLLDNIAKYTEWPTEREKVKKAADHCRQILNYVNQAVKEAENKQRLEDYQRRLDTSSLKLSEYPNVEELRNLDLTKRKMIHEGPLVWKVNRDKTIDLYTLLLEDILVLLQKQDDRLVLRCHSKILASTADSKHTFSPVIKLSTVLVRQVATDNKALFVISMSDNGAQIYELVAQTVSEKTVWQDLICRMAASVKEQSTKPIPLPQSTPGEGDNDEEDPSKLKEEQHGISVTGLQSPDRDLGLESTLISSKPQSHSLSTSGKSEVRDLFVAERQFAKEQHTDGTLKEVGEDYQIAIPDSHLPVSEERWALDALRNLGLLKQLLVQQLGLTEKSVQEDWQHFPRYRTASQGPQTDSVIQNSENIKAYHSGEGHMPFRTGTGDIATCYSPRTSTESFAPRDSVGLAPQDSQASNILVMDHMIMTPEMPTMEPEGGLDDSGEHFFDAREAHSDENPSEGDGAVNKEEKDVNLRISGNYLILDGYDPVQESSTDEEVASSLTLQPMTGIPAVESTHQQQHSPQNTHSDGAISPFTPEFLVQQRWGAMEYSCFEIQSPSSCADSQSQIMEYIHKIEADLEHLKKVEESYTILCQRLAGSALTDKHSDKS
UniProt Q8IV38, 384-405: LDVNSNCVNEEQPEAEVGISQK
UniProt Q63HQ0, 173-193: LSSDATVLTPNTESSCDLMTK
UniProt Q8IZ07, 527-549: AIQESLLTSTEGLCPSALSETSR
UniProt Q6ZW76: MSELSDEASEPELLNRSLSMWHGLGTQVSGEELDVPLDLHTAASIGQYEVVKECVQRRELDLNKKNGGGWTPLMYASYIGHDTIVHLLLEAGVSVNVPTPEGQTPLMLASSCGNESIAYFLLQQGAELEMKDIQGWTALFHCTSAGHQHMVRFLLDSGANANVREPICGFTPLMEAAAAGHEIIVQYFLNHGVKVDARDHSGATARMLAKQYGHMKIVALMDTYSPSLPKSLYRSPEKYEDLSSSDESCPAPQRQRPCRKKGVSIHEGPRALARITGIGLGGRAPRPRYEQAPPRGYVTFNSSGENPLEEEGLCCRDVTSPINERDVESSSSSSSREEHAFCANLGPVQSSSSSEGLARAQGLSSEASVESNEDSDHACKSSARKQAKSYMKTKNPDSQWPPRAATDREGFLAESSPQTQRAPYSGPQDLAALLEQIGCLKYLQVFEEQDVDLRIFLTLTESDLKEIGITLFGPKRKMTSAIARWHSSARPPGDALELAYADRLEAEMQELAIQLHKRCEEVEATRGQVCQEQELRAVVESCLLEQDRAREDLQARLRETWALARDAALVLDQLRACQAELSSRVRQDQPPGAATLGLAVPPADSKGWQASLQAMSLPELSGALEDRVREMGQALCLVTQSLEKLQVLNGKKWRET
UniProt Q3SXY8: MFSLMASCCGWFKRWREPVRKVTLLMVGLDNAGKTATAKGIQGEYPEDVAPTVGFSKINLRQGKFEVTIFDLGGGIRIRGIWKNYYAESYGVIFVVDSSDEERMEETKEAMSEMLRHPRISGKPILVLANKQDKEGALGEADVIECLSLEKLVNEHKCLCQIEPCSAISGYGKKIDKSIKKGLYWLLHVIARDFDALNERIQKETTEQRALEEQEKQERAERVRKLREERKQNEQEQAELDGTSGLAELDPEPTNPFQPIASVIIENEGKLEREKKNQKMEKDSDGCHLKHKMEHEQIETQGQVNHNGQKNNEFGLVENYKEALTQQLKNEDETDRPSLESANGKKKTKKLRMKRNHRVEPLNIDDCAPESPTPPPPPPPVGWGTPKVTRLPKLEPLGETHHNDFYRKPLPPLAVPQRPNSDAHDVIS

Assays:
[1] = compound: ClCC(=O)N[C@@H]1CCCc2ccccc12; assay: log2 mean competition ratio of IA-DTB cysteine labelling (DMSO/compound) (log2 ratio); higher = stronger cysteine engagement by compound; conditions: treatment time: 4 h, cell line lysate: HEK293T
Experimental: (§1)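 IA-DTB competitive cysteine chemoproteomics in HEK293T RIPA lysate. Lysates were treated with compound 29 or 30 at 50 or 200 µM for 4 h, then IA-DTB (500 µM, 1 h), trypsin-digested, NeutrAvidin-enriched and analysed by diaPASEF. Competition ratio = intensity DMSO / intensity compound (n=4 treated, n=64 DMSO); binding: mean log2 CR ≥ 1 and p ≤ 0.05 plus QC filters. Target is the cysteine site.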

[2] = compound: ClCC(=O)N[C@H]1CCCc2ccccc12; assay: as above; conditions: treatment time: 4 h, cell line lysate: HEK293T
Experimental: as §1

ARFGEF2 C1617 (UniProt Q9Y6D5)
log2 mean competition ratio ([1]; 50 µM): -0.0262 | log2 mean competition ratio ([1]; 200 µM): 0.13

ARAP1 C900 (UniProt Q96P48)
log2 mean competition ratio ([1]; 50 µM): -0.238 | log2 mean competition ratio ([1]; 200 µM): 0.129

ANKS6 C17 (UniProt Q68DC2)
log2 mean competition ratio ([1]; 50 µM): 0.166 | log2 mean competition ratio ([1]; 200 µM): -0.224

ARHGAP12 C199 (UniProt Q8IWW6)
log2 mean competition ratio ([1]; 50 µM): -0.0209 | log2 mean competition ratio ([1]; 200 µM): 0.028 | log2 mean competition ratio ([2]; 50 µM): -0.301 | log2 mean competition ratio ([2]; 200 µM): -0.23

APAF1 C633 (UniProt O14727)
log2 mean competition ratio ([1]; 50 µM): 0.0157 | log2 mean competition ratio ([1]; 200 µM): 0.0464

AP2A2 C267 (UniProt O94973)
log2 mean competition ratio ([1]; 50 µM): -0.092 | log2 mean competition ratio ([1]; 200 µM): -0.309 | log2 mean competition ratio ([2]; 50 µM): -0.168 | log2 mean competition ratio ([2]; 200 µM): -0.189

ARHGAP5 C727 (UniProt Q13017)
log2 mean competition ratio ([1]; 50 µM): -0.0804 | log2 mean competition ratio ([1]; 200 µM): 0.2 | log2 mean competition ratio ([2]; 50 µM): 0.32 | log2 mean competition ratio ([2]; 200 µM): 0.246

ANXA11 C294 (UniProt P50995)
log2 mean competition ratio ([1]; 50 µM): 0.0548 | log2 mean competition ratio ([1]; 200 µM): 0.332

ASCC3 C310 (UniProt Q8N3C0)
log2 mean competition ratio ([1]; 50 µM): -0.0099 | log2 mean competition ratio ([1]; 200 µM): 0.269

ARPC1A C279 (UniProt Q92747)
log2 mean competition ratio ([1]; 50 µM): 0.474 | log2 mean competition ratio ([1]; 200 µM): -0.235

ANXA7 C285 (UniProt P20073)
log2 mean competition ratio ([1]; 50 µM): -0.0234 | log2 mean competition ratio ([1]; 200 µM): 0.103

AP1B1 C921 (UniProt Q10567)
log2 mean competition ratio ([1]; 50 µM): -0.114 | log2 mean competition ratio ([1]; 200 µM): -0.104

ARIH2 C270 (UniProt O95376)
log2 mean competition ratio ([1]; 50 µM): -0.316 | log2 mean competition ratio ([1]; 200 µM): 0.194

AP3D1 C39 (UniProt O14617)
log2 mean competition ratio ([1]; 50 µM): 0.104 | log2 mean competition ratio ([1]; 200 µM): -0.114

AP2A1 C941 (UniProt O95782)
log2 mean competition ratio ([1]; 50 µM): 0.659 | log2 mean competition ratio ([1]; 200 µM): 0.217 | log2 mean competition ratio ([2]; 200 µM): 0.0158

ARHGEF12 C784 (UniProt Q9NZN5)
log2 mean competition ratio ([1]; 50 µM): -0.184 | log2 mean competition ratio ([1]; 200 µM): 0.0822 | log2 mean competition ratio ([2]; 50 µM): -0.0934 | log2 mean competition ratio ([2]; 200 µM): 0.063

ANKMY2 C205 (UniProt Q8IV38)
log2 mean competition ratio ([1]; 50 µM): -0.111 | log2 mean competition ratio ([1]; 200 µM): 0.15

ANLN C1117 (UniProt Q9NQW6)
log2 mean competition ratio ([1]; 50 µM): 0.141 | log2 mean competition ratio ([1]; 200 µM): -0.0191 | log2 mean competition ratio ([2]; 50 µM): -0.227 | log2 mean competition ratio ([2]; 200 µM): -0.119

ANKRD26 C1106 (UniProt Q9UPS8)
log2 mean competition ratio ([1]; 50 µM): -0.105 | log2 mean competition ratio ([1]; 200 µM): 0.0196 | log2 mean competition ratio ([2]; 50 µM): -0.315 | log2 mean competition ratio ([2]; 200 µM): 0.0168

ARHGAP21 C1700 (UniProt Q5T5U3)
log2 mean competition ratio ([1]; 50 µM): 0.597 | log2 mean competition ratio ([1]; 200 µM): 0.397 | log2 mean competition ratio ([2]; 50 µM): 0.173 | log2 mean competition ratio ([2]; 200 µM): 0.477

AP2B1 C241 (UniProt P63010)
log2 mean competition ratio ([1]; 50 µM): -0.106 | log2 mean competition ratio ([1]; 200 µM): -0.123 | log2 mean competition ratio ([2]; 50 µM): 0.189 | log2 mean competition ratio ([2]; 200 µM): 0.0248

AP3M1 C288 (UniProt Q9Y2T2)
log2 mean competition ratio ([1]; 50 µM): -0.289 | log2 mean competition ratio ([1]; 200 µM): 0.103 | log2 mean competition ratio ([2]; 50 µM): 0.235 | log2 mean competition ratio ([2]; 200 µM): 0.0262

AP1AR C188 (UniProt Q63HQ0)
log2 mean competition ratio ([1]; 50 µM): -0.479 | log2 mean competition ratio ([1]; 200 µM): -0.005 | log2 mean competition ratio ([2]; 50 µM): -0.183 | log2 mean competition ratio ([2]; 200 µM): 0.14

ARHGEF12 C1128 (UniProt Q9NZN5)
log2 mean competition ratio ([1]; 50 µM): -0.144 | log2 mean competition ratio ([1]; 200 µM): 0.0794 | log2 mean competition ratio ([2]; 50 µM): -0.165 | log2 mean competition ratio ([2]; 200 µM): 0.124

ANKLE2 C254 (UniProt Q86XL3)
log2 mean competition ratio ([1]; 50 µM): 0.0789 | log2 mean competition ratio ([1]; 200 µM): 0.0222 | log2 mean competition ratio ([2]; 50 µM): -0.0174 | log2 mean competition ratio ([2]; 200 µM): 0.0323

AP1G1 C392
log2 mean competition ratio ([1]; 50 µM): -0.342 | log2 mean competition ratio ([1]; 200 µM): -0.328 | log2 mean competition ratio ([2]; 50 µM): 0.268 | log2 mean competition ratio ([2]; 200 µM): -0.474

ARFGEF1 C1503 (UniProt Q9Y6D6)
log2 mean competition ratio ([1]; 50 µM): 0.441 | log2 mean competition ratio ([1]; 200 µM): -0.206 | log2 mean competition ratio ([2]; 50 µM): 0.0457 | log2 mean competition ratio ([2]; 200 µM): -0.173

ARIH1 C269 (UniProt Q9Y4X5)
log2 mean competition ratio ([1]; 50 µM): 0.0268 | log2 mean competition ratio ([1]; 200 µM): 0.293 | log2 mean competition ratio ([2]; 50 µM): -0.376 | log2 mean competition ratio ([2]; 200 µM): 0.0243

ANKRD11 C646 (UniProt Q6UB99)
log2 mean competition ratio ([1]; 50 µM): 0.0958 | log2 mean competition ratio ([1]; 200 µM): 0.161 | log2 mean competition ratio ([2]; 50 µM): -0.591 | log2 mean competition ratio ([2]; 200 µM): -0.104

ARHGEF6 C553 (UniProt Q15052)
log2 mean competition ratio ([1]; 50 µM): 0.447 | log2 mean competition ratio ([1]; 200 µM): 0.253 | log2 mean competition ratio ([2]; 50 µM): 0.185 | log2 mean competition ratio ([2]; 200 µM): 0.33

ARHGEF7 C721 (UniProt Q14155)
log2 mean competition ratio ([1]; 50 µM): 0.0567 | log2 mean competition ratio ([1]; 200 µM): -0.00835 | log2 mean competition ratio ([2]; 50 µM): 0.406 | log2 mean competition ratio ([2]; 200 µM): 0.0437

APP C174 (UniProt P05067)
log2 mean competition ratio ([1]; 50 µM): 0.346 | log2 mean competition ratio ([1]; 200 µM): -0.302 | log2 mean competition ratio ([2]; 50 µM): 0.857 | log2 mean competition ratio ([2]; 200 µM): 0.187

ARHGAP19 C340 (UniProt Q14CB8)
log2 mean competition ratio ([1]; 50 µM): -0.148 | log2 mean competition ratio ([1]; 200 µM): 0.111 | log2 mean competition ratio ([2]; 50 µM): -0.69 | log2 mean competition ratio ([2]; 200 µM): 0.114

ANKRD17 C1158 (UniProt O75179)
log2 mean competition ratio ([1]; 50 µM): 0.152 | log2 mean competition ratio ([1]; 200 µM): 0.0454 | log2 mean competition ratio ([2]; 50 µM): -0.177 | log2 mean competition ratio ([2]; 200 µM): -0.191

ANKRD54 C230 (UniProt Q6NXT1)
log2 mean competition ratio ([1]; 50 µM): 0.252 | log2 mean competition ratio ([1]; 200 µM): 0.362 | log2 mean competition ratio ([2]; 50 µM): -0.503 | log2 mean competition ratio ([2]; 200 µM): 0.167

ANLN C1081 (UniProt Q9NQW6)
log2 mean competition ratio ([1]; 50 µM): -0.213 | log2 mean competition ratio ([1]; 200 µM): 0.323 | log2 mean competition ratio ([2]; 50 µM): 0.114 | log2 mean competition ratio ([2]; 200 µM): 0.654

ANKRD13A C540 (UniProt Q8IZ07)
log2 mean competition ratio ([1]; 50 µM): -0.204 | log2 mean competition ratio ([1]; 200 µM): -0.471 | log2 mean competition ratio ([2]; 50 µM): 0.41 | log2 mean competition ratio ([2]; 200 µM): -0.437

ANKS3 C530 (UniProt Q6ZW76)
log2 mean competition ratio ([1]; 50 µM): -0.125 | log2 mean competition ratio ([1]; 200 µM): -0.114 | log2 mean competition ratio ([2]; 50 µM): -0.391 | log2 mean competition ratio ([2]; 200 µM): -0.078

ARL13B C287 (UniProt Q3SXY8)
log2 mean competition ratio ([1]; 50 µM): -0.176 | log2 mean competition ratio ([1]; 200 µM): -0.348 | log2 mean competition ratio ([2]; 50 µM): -0.00678 | log2 mean competition ratio ([2]; 200 µM): 0.0361

ASCC3 C1638 (UniProt Q8N3C0)
log2 mean competition ratio ([1]; 50 µM): -0.291 | log2 mean competition ratio ([1]; 200 µM): 0.149 | log2 mean competition ratio ([2]; 50 µM): -0.336 | log2 mean competition ratio ([2]; 200 µM): -0.208

ARHGAP21 C1152 (UniProt Q5T5U3)
log2 mean competition ratio ([1]; 50 µM): 0.11 | log2 mean competition ratio ([1]; 200 µM): -0.32 | log2 mean competition ratio ([2]; 50 µM): -0.0104 | log2 mean competition ratio ([2]; 200 µM): 0.104

ANKRD11 C1339 (UniProt Q6UB99)
log2 mean competition ratio ([1]; 50 µM): -0.118 | log2 mean competition ratio ([1]; 200 µM): -0.288 | log2 mean competition ratio ([2]; 50 µM): -0.35 | log2 mean competition ratio ([2]; 200 µM): 0.149

AS3MT C226
log2 mean competition ratio ([1]; 50 µM): -0.121 | log2 mean competition ratio ([1]; 200 µM): 0.398 | log2 mean competition ratio ([2]; 50 µM): -0.598 | log2 mean competition ratio ([2]; 200 µM): 0.212

AP1G1 C106
log2 mean competition ratio ([1]; 50 µM): -0.156 | log2 mean competition ratio ([1]; 200 µM): 0.0772 | log2 mean competition ratio ([2]; 50 µM): -0.601 | log2 mean competition ratio ([2]; 200 µM): -0.0142

AP2A2 C532 (UniProt O94973)
log2 mean competition ratio ([1]; 50 µM): 0.227 | log2 mean competition ratio ([1]; 200 µM): -0.299 | log2 mean competition ratio ([2]; 50 µM): 0.486 | log2 mean competition ratio ([2]; 200 µM): -0.427

ANXA2 C133
log2 mean competition ratio ([1]; 50 µM): -0.139 | log2 mean competition ratio ([1]; 200 µM): -0.0756 | log2 mean competition ratio ([2]; 50 µM): -0.0366 | log2 mean competition ratio ([2]; 200 µM): 0.318

ANKMY2 C390 (UniProt Q8IV38)
log2 mean competition ratio ([1]; 50 µM): -0.452 | log2 mean competition ratio ([1]; 200 µM): -0.15 | log2 mean competition ratio ([2]; 50 µM): -0.041 | log2 mean competition ratio ([2]; 200 µM): -0.118
